Experimental data reported in publication PMC6942600.
No constants are given. Whether binding was seen depends on the method and setting. Binding seen in cells or lysates may run through a third protein. Some results given as binding are weak or reduced against the parent protein; the word gives no strength.

Chains of the proteins cited; added tags and fusions are not shown.
UniProt P30680: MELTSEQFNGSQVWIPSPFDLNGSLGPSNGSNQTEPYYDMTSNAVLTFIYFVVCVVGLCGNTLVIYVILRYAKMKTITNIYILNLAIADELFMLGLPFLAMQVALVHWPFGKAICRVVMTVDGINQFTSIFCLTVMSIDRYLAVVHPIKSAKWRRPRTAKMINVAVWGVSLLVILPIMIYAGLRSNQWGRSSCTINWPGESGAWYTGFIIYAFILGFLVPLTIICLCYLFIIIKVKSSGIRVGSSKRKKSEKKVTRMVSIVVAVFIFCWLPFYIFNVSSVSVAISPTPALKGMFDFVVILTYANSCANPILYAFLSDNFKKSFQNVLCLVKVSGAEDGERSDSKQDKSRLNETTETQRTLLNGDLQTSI
UniProt P34975: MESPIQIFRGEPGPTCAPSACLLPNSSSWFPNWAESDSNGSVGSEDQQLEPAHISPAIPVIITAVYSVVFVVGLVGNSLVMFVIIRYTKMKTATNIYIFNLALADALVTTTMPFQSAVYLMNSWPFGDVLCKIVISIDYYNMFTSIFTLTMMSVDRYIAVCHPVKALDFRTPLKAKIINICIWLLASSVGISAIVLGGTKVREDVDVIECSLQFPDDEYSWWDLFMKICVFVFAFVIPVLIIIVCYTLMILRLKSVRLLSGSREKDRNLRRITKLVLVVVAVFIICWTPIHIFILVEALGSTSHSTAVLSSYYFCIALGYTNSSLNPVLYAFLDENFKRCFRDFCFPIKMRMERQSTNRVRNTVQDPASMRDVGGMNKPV

Target: somatostatin receptor 2 (rat (endogenous in rat brain sections)) (UniProt P30680)
Assay: proximity ligation; in situ PLA on free-floating formalin fixed rat brain sections (35 um, Bregma +1.0 mm), claustrum and dorsal endopiriform nucleus; mouse anti-KOR and rabbit anti-SSTR2 primary antibodies, Duolink probes, confocal microscopy

Substance: kappa opioid receptor (from UniProt P34975 1-380)
- binding: binds
